Measurements published in the supplement of paper PMC10849652.
The list shows a part of the results.

By UniProt entry, the sequences of proteins in these tests, tags left out. Where a name states a change or a piece, a line headed by the entry shows the natural chain unless it says otherwise.
UniProt Q15067: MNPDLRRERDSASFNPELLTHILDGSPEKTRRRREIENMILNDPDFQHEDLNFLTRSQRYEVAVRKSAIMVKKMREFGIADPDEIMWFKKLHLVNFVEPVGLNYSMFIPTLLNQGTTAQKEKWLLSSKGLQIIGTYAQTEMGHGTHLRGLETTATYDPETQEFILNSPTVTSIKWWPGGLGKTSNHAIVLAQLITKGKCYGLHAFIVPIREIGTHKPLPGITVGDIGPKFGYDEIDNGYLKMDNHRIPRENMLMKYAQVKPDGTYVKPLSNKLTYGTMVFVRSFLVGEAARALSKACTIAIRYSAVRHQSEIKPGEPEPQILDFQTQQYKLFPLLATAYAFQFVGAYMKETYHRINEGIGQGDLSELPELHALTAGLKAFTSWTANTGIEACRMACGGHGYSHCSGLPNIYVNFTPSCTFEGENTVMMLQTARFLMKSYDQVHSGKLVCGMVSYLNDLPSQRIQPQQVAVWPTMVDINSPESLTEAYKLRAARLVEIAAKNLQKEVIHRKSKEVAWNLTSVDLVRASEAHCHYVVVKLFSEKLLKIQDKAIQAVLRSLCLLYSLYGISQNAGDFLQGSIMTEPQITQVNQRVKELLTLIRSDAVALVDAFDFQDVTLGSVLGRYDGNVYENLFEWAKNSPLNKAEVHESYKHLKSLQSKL
UniProt P24752: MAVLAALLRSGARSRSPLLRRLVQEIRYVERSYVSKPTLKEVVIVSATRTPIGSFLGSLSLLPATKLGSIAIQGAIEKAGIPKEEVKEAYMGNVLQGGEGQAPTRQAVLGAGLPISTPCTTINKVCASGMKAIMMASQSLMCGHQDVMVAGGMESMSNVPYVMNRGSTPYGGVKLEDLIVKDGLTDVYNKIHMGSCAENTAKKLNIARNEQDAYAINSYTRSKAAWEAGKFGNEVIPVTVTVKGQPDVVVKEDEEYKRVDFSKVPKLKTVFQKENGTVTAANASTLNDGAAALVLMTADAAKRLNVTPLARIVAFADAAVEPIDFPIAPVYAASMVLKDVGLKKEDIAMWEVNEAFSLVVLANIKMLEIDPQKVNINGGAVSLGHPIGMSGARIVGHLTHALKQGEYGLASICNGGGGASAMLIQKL
UniProt P16219: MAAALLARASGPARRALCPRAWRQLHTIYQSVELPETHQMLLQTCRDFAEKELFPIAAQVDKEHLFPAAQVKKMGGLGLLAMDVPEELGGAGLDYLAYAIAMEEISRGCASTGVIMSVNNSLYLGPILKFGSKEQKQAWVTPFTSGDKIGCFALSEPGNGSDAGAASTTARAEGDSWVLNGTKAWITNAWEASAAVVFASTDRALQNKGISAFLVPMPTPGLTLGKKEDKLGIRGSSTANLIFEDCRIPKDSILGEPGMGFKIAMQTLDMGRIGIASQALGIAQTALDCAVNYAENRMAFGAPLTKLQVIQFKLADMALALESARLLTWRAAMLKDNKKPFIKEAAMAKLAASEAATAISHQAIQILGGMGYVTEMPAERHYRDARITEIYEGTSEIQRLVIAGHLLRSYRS
UniProt Q8N2K0: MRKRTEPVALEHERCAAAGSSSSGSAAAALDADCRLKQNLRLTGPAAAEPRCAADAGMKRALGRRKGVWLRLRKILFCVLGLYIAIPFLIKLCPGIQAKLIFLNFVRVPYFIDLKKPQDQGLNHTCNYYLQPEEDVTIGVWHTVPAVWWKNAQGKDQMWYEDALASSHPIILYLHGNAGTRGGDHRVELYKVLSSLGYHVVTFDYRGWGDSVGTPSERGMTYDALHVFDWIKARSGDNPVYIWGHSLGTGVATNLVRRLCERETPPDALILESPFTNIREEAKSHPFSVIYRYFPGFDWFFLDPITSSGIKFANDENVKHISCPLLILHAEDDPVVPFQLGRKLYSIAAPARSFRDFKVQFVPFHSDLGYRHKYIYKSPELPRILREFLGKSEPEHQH
UniProt Q9NZ32, whole entry, looked up: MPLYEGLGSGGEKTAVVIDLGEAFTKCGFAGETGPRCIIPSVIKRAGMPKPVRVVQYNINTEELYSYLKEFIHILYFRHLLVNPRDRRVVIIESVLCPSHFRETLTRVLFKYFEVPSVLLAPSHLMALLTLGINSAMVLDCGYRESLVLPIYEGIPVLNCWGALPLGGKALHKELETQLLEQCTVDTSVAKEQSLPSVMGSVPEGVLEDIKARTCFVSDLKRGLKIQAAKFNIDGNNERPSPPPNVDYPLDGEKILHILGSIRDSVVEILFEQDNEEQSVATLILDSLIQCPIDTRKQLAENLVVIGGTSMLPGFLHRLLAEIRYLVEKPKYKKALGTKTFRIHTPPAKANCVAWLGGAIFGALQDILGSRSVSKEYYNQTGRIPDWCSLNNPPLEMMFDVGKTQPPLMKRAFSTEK
UniProt Q9NUQ8: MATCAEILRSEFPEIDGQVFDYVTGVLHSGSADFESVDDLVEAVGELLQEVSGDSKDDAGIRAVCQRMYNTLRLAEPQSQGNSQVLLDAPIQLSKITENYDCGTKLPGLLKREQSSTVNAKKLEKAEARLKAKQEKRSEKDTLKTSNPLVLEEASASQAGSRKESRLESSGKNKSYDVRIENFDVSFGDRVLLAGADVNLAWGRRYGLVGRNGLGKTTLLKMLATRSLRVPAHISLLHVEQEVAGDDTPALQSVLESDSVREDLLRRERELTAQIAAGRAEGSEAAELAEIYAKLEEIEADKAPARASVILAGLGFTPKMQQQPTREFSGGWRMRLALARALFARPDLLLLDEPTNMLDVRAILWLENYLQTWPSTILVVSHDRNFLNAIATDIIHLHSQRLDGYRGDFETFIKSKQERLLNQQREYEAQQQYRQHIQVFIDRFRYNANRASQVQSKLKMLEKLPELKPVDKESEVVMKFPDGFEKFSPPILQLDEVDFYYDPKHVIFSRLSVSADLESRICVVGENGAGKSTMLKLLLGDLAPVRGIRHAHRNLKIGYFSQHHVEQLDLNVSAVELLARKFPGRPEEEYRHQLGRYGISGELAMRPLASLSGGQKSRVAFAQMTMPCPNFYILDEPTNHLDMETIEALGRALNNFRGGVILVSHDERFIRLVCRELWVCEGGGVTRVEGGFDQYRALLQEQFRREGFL
UniProt O14734: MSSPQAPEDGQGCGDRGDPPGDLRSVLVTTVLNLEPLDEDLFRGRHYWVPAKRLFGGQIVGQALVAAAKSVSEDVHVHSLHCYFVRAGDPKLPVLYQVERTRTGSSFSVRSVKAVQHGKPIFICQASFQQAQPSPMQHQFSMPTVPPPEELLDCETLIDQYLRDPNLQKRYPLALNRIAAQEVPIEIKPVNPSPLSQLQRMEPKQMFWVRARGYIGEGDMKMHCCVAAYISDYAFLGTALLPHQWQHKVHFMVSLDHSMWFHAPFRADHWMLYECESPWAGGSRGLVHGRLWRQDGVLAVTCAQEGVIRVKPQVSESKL
UniProt Q9UKU7: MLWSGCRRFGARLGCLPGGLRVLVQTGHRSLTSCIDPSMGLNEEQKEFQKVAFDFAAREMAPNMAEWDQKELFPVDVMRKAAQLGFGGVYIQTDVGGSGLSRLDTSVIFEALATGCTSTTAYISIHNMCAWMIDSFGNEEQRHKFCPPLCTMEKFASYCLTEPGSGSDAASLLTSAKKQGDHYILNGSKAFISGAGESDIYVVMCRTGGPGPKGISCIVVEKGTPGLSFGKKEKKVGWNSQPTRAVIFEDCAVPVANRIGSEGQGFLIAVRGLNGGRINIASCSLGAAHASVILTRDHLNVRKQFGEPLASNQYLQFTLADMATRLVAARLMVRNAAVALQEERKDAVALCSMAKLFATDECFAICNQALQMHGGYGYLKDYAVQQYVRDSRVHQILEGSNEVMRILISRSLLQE
UniProt O96019, whole entry, looked up: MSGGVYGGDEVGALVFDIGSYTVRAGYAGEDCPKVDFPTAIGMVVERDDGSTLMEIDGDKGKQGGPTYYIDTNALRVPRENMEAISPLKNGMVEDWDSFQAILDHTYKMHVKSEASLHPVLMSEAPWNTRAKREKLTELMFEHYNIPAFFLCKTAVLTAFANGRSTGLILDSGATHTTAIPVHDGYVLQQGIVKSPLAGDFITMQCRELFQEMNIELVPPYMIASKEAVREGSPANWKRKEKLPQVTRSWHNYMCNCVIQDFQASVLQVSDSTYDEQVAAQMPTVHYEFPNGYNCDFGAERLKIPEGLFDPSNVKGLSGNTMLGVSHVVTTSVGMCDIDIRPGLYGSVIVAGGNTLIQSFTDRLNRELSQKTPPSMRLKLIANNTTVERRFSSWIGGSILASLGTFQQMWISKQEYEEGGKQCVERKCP
UniProt O75027: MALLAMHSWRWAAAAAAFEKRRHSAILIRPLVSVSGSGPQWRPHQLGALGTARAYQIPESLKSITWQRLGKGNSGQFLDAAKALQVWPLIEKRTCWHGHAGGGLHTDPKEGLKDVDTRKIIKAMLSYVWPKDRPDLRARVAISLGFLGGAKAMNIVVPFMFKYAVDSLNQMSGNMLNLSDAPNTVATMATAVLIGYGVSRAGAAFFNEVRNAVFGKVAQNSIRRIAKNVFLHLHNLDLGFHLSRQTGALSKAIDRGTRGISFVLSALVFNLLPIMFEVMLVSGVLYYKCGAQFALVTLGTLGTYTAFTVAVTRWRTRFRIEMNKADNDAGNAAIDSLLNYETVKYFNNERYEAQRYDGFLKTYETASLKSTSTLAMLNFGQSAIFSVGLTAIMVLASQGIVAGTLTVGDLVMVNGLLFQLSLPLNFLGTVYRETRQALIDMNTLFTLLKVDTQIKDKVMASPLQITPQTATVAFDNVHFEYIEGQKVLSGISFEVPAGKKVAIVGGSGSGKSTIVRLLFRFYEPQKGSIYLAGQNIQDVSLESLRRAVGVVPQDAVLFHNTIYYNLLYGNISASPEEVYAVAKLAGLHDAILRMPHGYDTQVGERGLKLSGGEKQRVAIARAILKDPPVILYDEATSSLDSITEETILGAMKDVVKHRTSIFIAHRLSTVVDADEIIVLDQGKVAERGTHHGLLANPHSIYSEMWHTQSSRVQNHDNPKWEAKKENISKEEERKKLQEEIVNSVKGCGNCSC
UniProt Q6DHV7: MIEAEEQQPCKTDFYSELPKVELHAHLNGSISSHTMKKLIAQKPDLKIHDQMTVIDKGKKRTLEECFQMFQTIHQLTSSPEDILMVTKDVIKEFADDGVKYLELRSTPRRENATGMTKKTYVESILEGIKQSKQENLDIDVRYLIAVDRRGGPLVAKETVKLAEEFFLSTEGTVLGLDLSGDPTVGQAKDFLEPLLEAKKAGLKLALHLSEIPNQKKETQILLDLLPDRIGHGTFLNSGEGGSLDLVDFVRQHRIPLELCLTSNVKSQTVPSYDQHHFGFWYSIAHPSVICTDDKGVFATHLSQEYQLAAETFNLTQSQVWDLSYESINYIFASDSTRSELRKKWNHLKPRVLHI
UniProt P28288: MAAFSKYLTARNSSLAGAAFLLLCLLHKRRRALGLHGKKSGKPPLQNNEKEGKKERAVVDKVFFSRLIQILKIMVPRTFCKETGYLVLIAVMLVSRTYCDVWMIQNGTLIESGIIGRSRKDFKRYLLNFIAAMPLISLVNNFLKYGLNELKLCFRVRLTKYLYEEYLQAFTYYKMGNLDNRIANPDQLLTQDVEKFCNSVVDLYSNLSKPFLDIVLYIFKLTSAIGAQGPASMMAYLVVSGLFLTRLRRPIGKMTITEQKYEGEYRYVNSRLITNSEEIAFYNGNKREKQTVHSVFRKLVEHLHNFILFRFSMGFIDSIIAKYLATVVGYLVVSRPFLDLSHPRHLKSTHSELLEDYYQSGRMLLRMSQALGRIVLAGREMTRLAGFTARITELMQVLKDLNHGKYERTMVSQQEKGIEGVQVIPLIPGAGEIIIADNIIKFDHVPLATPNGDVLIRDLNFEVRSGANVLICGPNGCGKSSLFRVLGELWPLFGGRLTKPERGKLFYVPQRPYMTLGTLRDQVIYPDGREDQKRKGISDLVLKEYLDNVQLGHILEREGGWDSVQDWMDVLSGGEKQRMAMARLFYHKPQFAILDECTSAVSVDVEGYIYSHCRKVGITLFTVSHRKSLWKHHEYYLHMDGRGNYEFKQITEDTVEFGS
UniProt P09110: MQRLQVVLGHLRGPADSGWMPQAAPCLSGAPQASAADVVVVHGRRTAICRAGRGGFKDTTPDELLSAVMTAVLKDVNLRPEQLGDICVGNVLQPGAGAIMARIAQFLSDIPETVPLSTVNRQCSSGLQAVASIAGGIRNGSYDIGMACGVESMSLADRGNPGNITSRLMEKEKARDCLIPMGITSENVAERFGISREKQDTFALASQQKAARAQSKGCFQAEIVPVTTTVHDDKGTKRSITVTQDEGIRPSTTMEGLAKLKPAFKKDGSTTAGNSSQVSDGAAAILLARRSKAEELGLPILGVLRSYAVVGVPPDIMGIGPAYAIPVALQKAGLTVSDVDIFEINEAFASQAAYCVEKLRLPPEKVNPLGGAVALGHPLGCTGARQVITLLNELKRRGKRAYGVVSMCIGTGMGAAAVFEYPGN
UniProt Q7Z6V5: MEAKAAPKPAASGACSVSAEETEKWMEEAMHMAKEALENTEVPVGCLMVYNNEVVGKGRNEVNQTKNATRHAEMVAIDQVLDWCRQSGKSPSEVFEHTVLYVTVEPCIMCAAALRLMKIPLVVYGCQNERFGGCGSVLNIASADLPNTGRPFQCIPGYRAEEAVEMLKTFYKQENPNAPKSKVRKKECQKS

compound: FC(F)(F)c1ccc(/C=C/c2nc(COc3ccc(CCCCn4ccnn4)cc3)co2)cc1 [mubritinib]; assay: log2 fold change, soluble protein after heating vs DMSO (PISA); higher = thermal stabilisation; K562 cells, 10 uM, 30 min; active = over 0.2 and 3.5 SD of the protein, either way, in both replicates (recomputed)
Procedure, shortened: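 Soluble protein was quantified by TMTpro 16plex LC-MS/MS after channel sums were equalised. It was obtained as the supernatant after 21,000xg for 90 min from pooled aliquots of K562 cells (2×10^6 cells/mL, 10 μM compound, 30 min) heated for 3 min across 48°C-58°C and extracted in PBS with 0.5% NP-40 at 4°C. Thermal stability values are relative to control samples and come from duplicates. They are given as log2 fold changes.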

Target | log2 fold change
ACACA isoform 4 (UniProt Q13085) | inactive: -0.118
ACSS2 isoform 2 (UniProt Q9NR19) | inactive: -0.07
ACOX1 isoform 2 (UniProt Q15067) | inactive: 0.035
ACAT1 (UniProt P24752) | inactive: 0.02
ACTR2 (UniProt P61160) | inactive: -0.002
ACADS (UniProt P16219) | inactive: -0.037
ADAM10 (UniProt O14672) | inactive: 0.01
ABHD12 isoform 2 (UniProt Q8N2K0) | inactive: -0.063
ADAR isoform 4 (UniProt P55265) | inactive: -0.053
ACTR10 (UniProt Q9NZ32) | inactive: 0.066
ABLIM1 (UniProt O14639) | inactive: -0.198
ABCF3 (UniProt Q9NUQ8) | inactive: -0.18
ABRAXAS2 (UniProt Q15018) | inactive: -0.062
ACTA1 (UniProt P68133) | inactive: 0.016
ADAM17 (UniProt P78536) | inactive: -0.049
A2M (UniProt P01023) | inactive: -0.429
ACADSB (UniProt P45954) | inactive: -0.127
ACOT8 (UniProt O14734) | inactive: 0.067

Target | log2 fold change
ABCC4 (UniProt O15439) | inactive: 0.034
ACAD8 (UniProt Q9UKU7) | inactive: -0.017
ACY1 (UniProt Q03154) | inactive: 0.044
AASDHPPT (UniProt Q9NRN7) | inactive: 0.057
ACTL6A (UniProt O96019) | inactive: 0.063
ABCB7 isoform 2 (UniProt O75027) | inactive: 0.011
ADAL (UniProt Q6DHV7) | inactive: 0.052
ACTR6 (UniProt Q9GZN1) | inactive: 0.086
ACO1 (UniProt P21399) | inactive: -0.05
ACTR3 (UniProt P61158) | inactive: 0.005
ABCD3 (UniProt P28288) | inactive: 0.033
ACAA1 (UniProt P09110) | inactive: 0.043
ABCE1 (UniProt P61221) | inactive: 0.023
ADAT2 (UniProt Q7Z6V5) | inactive: 0
ABCF1 (UniProt Q8NE71) | inactive: -0.031
ACTN4 (UniProt O43707) | inactive: 0.008
AARS (UniProt P49588) | inactive: 0.011
ACTL8 (UniProt Q9H568) | inactive: 0

Single entries from above:
log2 fold change with ACAA1 (UniProt P09110) is entered as inactive: 0.043
log2 fold change with ACAD8 (UniProt Q9UKU7) is entered as inactive: -0.017
